# Record: PubChem BioAssay AID1259308 (NCATS, 2017)
# Aim: 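Candidate targets for better recombinant protein yield in mammalian cells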 (primary screen)
# Cell system: human HEK293 embryonic kidney cells stably expressing firefly luciferase (HEK-CMV-Luc2-Hygro)
# Knock-down reagent: single siRNA against human genes, 0.8 pmol siRNA per well
# Duration: 72 h
# Measured: 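Reporter luminescence and viable-cell signal on separate replicate plates, given as percent of non-targeting control and median/MAD z-scores, plus per-cell luciferase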
# Reading the numbers: total luciferase, z-score and total luciferase, % of control: higher = more reporter protein produced; luciferase per cell, z-score: higher = more reporter output per viable cell; viable cells, % of control: higher = more viable cells
# Rule for the call: 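Active when the median/MAD z-score for overall luciferase is greater than 3; a gene was taken forward for validation with new siRNAs if at least two of its three siRNAs passed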
# Meaning of the calls: active = raised luciferase; inactive = no rise
# Shown is a random part of about 59,000 reagents. About 1,510 of all reagents (2.6%) count as active. 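Calls use total luciferase alone and ignore viability, so some active siRNAs may act by altering cell number.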 Unmarked entries are inactive. Reagents against one gene are numbered here.
Target gene,reagent,"total luciferase, z-score","total luciferase, % of control","luciferase per cell, z-score","viable cells, % of control"
"AGAP3 (ArfGAP with GTPase domain, ankyrin repeat and PH domain 3)",1,0.102,83.9,0.416,84
"AGAP3 (ArfGAP with GTPase domain, ankyrin repeat and PH domain 3)",2,-0.21,77.7,0.566,74.8
"AGAP3 (ArfGAP with GTPase domain, ankyrin repeat and PH domain 3)",3,0.499,91.8,0.44,91.4
GSTO1 (glutathione S-transferase omega 1),1,-0.536,71.2,-1.1,106
GSTO1 (glutathione S-transferase omega 1),2,-0.903,63.9,-1.06,94.5
GSTO1 (glutathione S-transferase omega 1),3,-0.254,76.8,0.0395,85
ZFAND5 (zinc finger AN1-type containing 5),1,-0.347,75,-0.799,103
ZFAND5 (zinc finger AN1-type containing 5),2,1.28,107,1.38,83.4
ZFAND5 (zinc finger AN1-type containing 5),3,-1.89,44.3,-1.26,69.1
ADPRHL1 (ADP-ribosylhydrolase like 1),1,-0.662,68.7,-1.42,112
ADPRHL1 (ADP-ribosylhydrolase like 1),2,-0.223,77.5,-0.25,92.4
ADPRHL1 (ADP-ribosylhydrolase like 1),3,1.6,114,1.33,89.5
TRPC4AP,1,-0.182,78.3,0.177,83.5
TRPC4AP,2,-0.246,77,0.348,78.5
TRPC4AP,3,0.535,92.5,0.492,90.8
ANKRD29 (ankyrin repeat domain 29),1,1.99,122,1.56,90
ANKRD29 (ankyrin repeat domain 29),2,0.323,88.3,-0.000395,98.7
ANKRD29 (ankyrin repeat domain 29),3,1.31,108,0.975,93.4
FXR2 (FMR1 autosomal homolog 2),1,7.27 (active),227,4.68,73.9
FXR2 (FMR1 autosomal homolog 2),2,-1.37,54.5,-1.14,82.2
FXR2 (FMR1 autosomal homolog 2),3,-0.0125,81.6,-0.0894,93.4
TRPM4,1,0.674,95.3,0.0732,104
TRPM4,2,0.538,92.6,0.627,87.7
TRPM4,3,2.68,135,1.42,104
GABPB2 (GA binding protein transcription factor subunit beta 2),1,-0.959,62.8,0.267,65.4
GABPB2 (GA binding protein transcription factor subunit beta 2),2,-0.188,78.1,-0.123,90.2
GABPB2 (GA binding protein transcription factor subunit beta 2),3,-0.339,75.1,-0.505,95.9
DDX11 (DEAD/H-box helicase 11),1,0.193,85.7,-0.0423,96.9
DDX11 (DEAD/H-box helicase 11),2,-0.0491,80.9,-0.98,117
DDX11 (DEAD/H-box helicase 11),3,0.799,97.8,0.257,102
AKR1C8 (aldo-keto reductase family 1 member C8),1,-0.0508,80.9,-0.207,95.4
AKR1C8 (aldo-keto reductase family 1 member C8),2,-0.375,74.4,-0.799,103
AKR1C8 (aldo-keto reductase family 1 member C8),3,0.419,90.2,0.297,93.2
PHACTR4 (phosphatase and actin regulator 4),1,-0.186,78.2,-0.425,97.7
PHACTR4 (phosphatase and actin regulator 4),2,-0.918,63.6,-1.33,101
PHACTR4 (phosphatase and actin regulator 4),3,-0.79,66.2,0.0956,72.1
FBLN5 (fibulin 5),1,0.998,102,1.69,72.9
FBLN5 (fibulin 5),2,-0.276,76.4,0.0568,84.1
FBLN5 (fibulin 5),3,-0.825,65.5,-0.861,91.8
TOM1 (target of myb1 membrane trafficking protein),1,-0.00779,81.7,-0.414,102
TOM1 (target of myb1 membrane trafficking protein),2,1.3,108,0.156,116
TOM1 (target of myb1 membrane trafficking protein),3,-0.342,75.1,-0.819,104
PSMF1 (proteasome inhibitor subunit 1),1,0.288,87.6,0.179,93.4
PSMF1 (proteasome inhibitor subunit 1),2,-0.463,72.7,-0.674,97
PSMF1 (proteasome inhibitor subunit 1),3,-0.688,68.2,-0.543,87.9
TUBB2A (tubulin beta 2A class IIa),1,-1.34,55.1,-1.39,88.9
TUBB2A (tubulin beta 2A class IIa),2,-1.03,61.4,-1.33,97.4
TUBB2A (tubulin beta 2A class IIa),3,-2.2,38.1,-2.37,79.5
GHRH (growth hormone releasing hormone),1,2.11,124,1.65,89.7
GHRH (growth hormone releasing hormone),2,-1.87,44.8,-0.548,57.8
GHRH (growth hormone releasing hormone),3,-1.13,59.3,-0.613,77.9
SOX21 (SRY-box transcription factor 21),1,-1.05,61,0.148,65.6
SOX21 (SRY-box transcription factor 21),2,-0.831,65.3,-0.938,93.5
SOX21 (SRY-box transcription factor 21),3,0.96,101,0.855,90.1
CCR2 (C-C motif chemokine receptor 2),1,-0.532,71.3,-1.06,105
CCR2 (C-C motif chemokine receptor 2),2,3.22 (active),146,3.06,72.8
CCR2 (C-C motif chemokine receptor 2),3,-0.236,77.2,-0.346,94.5
CCR2 (C-C motif chemokine receptor 2),4,-0.988,62.2,-0.261,74.5
CCR2 (C-C motif chemokine receptor 2),5,0.116,84.2,1.15,69.5
CCR2 (C-C motif chemokine receptor 2),6,0.579,93.4,1.35,73.2
FLJ45513,1,-0.906,63.9,-1.02,93.5
FLJ45513,2,2.7,136,2.39,80.7
FLJ45513,3,-0.48,72.3,-0.659,96.1
C11orf42 (chromosome 11 open reading frame 42),1,0.746,96.7,0.0736,106
C11orf42 (chromosome 11 open reading frame 42),2,-0.267,76.6,-0.198,90.1
C11orf42 (chromosome 11 open reading frame 42),3,1.12,104,2.37,62.5
SETDB1 (SET domain bifurcated histone lysine methyltransferase 1),1,0.514,92.1,-0.107,106
SETDB1 (SET domain bifurcated histone lysine methyltransferase 1),2,1.6,114,1.21,92.4
SETDB1 (SET domain bifurcated histone lysine methyltransferase 1),3,1.32,108,0.78,98.3
APMAP (adipocyte plasma membrane associated protein),1,-1.1,60,0.772,54.7
APMAP (adipocyte plasma membrane associated protein),2,0.154,85,-0.123,98.1
APMAP (adipocyte plasma membrane associated protein),3,2.04,122,1.58,90.2
TEDC2-AS1 (TEDC2 antisense RNA 1),1,0.386,89.6,0.155,96.1
TEDC2-AS1 (TEDC2 antisense RNA 1),2,0.881,99.4,0.444,98.8
TEDC2-AS1 (TEDC2 antisense RNA 1),3,-0.689,68.2,-0.504,87

Reprinted from the entries so far for reference:
Target gene,reagent,"total luciferase, z-score","total luciferase, % of control","luciferase per cell, z-score","viable cells, % of control"
TRPM4,1,0.674,95.3,0.0732,104
TRPM4,2,0.538,92.6,0.627,87.7
TRPM4,3,2.68,135,1.42,104
GABPB2 (GA binding protein transcription factor subunit beta 2),1,-0.959,62.8,0.267,65.4
GABPB2 (GA binding protein transcription factor subunit beta 2),2,-0.188,78.1,-0.123,90.2
GABPB2 (GA binding protein transcription factor subunit beta 2),3,-0.339,75.1,-0.505,95.9
DDX11 (DEAD/H-box helicase 11),1,0.193,85.7,-0.0423,96.9
DDX11 (DEAD/H-box helicase 11),2,-0.0491,80.9,-0.98,117
DDX11 (DEAD/H-box helicase 11),3,0.799,97.8,0.257,102
AKR1C8 (aldo-keto reductase family 1 member C8),1,-0.0508,80.9,-0.207,95.4
AKR1C8 (aldo-keto reductase family 1 member C8),2,-0.375,74.4,-0.799,103
